Experimental data: PMC4915168
These are yes or no findings as the source states them, for the method shown. Binding seen in cells or lysates may run through a third protein. Some binding calls cover weakened binding; strength is not graded here.

Sequences of proteins named here, by UniProt entry; tags and fusion partners are left off. Residues count along the entry.
UniProt Q8BK72, residues 18-415: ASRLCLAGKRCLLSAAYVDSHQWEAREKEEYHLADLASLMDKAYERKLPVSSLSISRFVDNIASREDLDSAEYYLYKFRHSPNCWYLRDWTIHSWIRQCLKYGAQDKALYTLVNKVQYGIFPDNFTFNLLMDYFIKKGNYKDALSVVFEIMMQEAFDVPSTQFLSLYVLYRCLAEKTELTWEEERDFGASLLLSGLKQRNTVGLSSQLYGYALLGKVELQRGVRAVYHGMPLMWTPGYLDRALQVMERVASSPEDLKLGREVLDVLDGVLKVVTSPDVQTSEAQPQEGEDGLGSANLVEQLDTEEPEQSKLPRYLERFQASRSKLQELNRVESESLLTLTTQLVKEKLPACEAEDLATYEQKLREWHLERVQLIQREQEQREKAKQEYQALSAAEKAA

Target: FLAG-tagged MRPS27 (mouse) (UniProt Q8BK72)
Experiment: co-IP; anti-FLAG M2 magnetic beads on lysates of co-transfected NIH-3T3 cells crosslinked with 2 mM dithiobis[succinimidyl propionate]; lysis in 10 mM Tris-HCl pH 7.5, 260 mM sucrose, 100 mM KCl, 20 mM MgCl2, 1% digitonin; elution with 3x FLAG peptide; blot with anti-GFP and anti-FLAG

## GFP-tagged MRPL44 (from UniProt Q9CY73 31-333)
  binding: binds
